Assay results taken from the supplement of paper PMC10382679.
Single values of this set are uncertain.

B1: Rpb7; numbered along this chain (parent)
chain: MFFIKDLSLNITLHPSFFGPRMKQYLKTKLLEEVEGSCTGKFGYILCVLDYDNIDIQRGRILPTDGSAEFNVKYRAVVFKPFKGEVVDGTVVSCSQHGFEVQVGPMKVFVTKHLMPQDLTFNAGSNPPSYQSSEDVITIKSRIRVKIEGCISQVSSIHAIGSIKEDYLGAI

Assays:
[1] = variants of: B1; experiment: log2 fold change of mutant abundance, UV-irradiated vs unirradiated; higher = more UV resistant (enriched after UV); conditions: with Saccharomyces cerevisiae rad7Δ rad26Δ; UV dose (J/m2): 10; genetic background: rad7Δ rad26Δ rpb7Δ + plasmid RPB7 library; outgrowth: 10 cell divisions
Experimental: (§1)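 Error-prone PCR random mutant library of yeast RPB7 (codons 2-171) on a LEU2 plasmid, shuffled into rad7Δ rad26Δ S. cerevisiae (BJ5465 background) with genomic RPB7 deleted. Cells were irradiated with 10 J/m2 UV (254 nm) or left unirradiated and grown for 10 divisions. Plasmid RPB7 amplicons were Illumina-sequenced and per-codon amino-acid counts were compared UV vs no UV with NOISeq (3 repeats, ARSyNseq batch correction). Positive log2FC means enrichment after UV, i.e. UV resistance / derepressed TCR.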

[2] = variants of: B1; experiment: NOISeq theta enrichment statistic, UV-irradiated vs unirradiated (dimensionless); higher = more UV resistant (enriched after UV); conditions: with Saccharomyces cerevisiae rad7Δ rad26Δ; UV dose (J/m2): 10; genetic background: rad7Δ rad26Δ rpb7Δ + plasmid RPB7 library; outgrowth: 10 cell divisions
Experimental: as §1

Variant | log2 fold change of mutant abundance [1] | NOISeq theta enrichment statistic [2]
G36S | -0.0657 | -0.116
G36A | -0.207 | -0.218
G36D | -0.157 | -0.256
G36C | -0.0422 | -0.0952
G36E | 1.55 | 0.668
G36V | -0.000602 | -0.00127
G36R | 0.0056 | 0.00516
G36F | -0.0212 | -0.0172
T28R | -0.111 | -0.159
T28D | -0.0126 | -0.00599
T28A | -0.0495 | -0.192
T28Q | -0.126 | -0.136
T28N | -0.717 | -0.448
T28M | -1.02 | -0.801
T28L | -0.43 | -0.314
T28S | -0.0236 | -0.0922
T28K | 0.0712 | 0.143
T28I | -0.0097 | -0.0269
T28P | -0.266 | -0.276
C47W | 0.263 | 0.33
C47R | -0.118 | -0.333
C47H | 0.81 | 0.429
C47S | 0.114 | 0.458
C47V | -0.015 | -0.0175

Variant | log2 fold change of mutant abundance [1] | NOISeq theta enrichment statistic [2]
C47I | -0.191 | -0.167
C47G | -0.243 | -0.267
C47Y | 0.114 | 0.348
C47F | -0.12 | -0.331
C47L | -0.0474 | -0.0392
K41M | 0.0751 | 0.0325
K41Y | 0.123 | 0.0683
K41A | 0.795 | 0.575
K41H | -0.309 | -0.266
K41L | 0.392 | 0.219
K41E | -0.0413 | -0.165
K41D | -0.227 | -0.0912
K41N | -0.148 | -0.575
K41S | -0.502 | -0.3
K41G | 1.29 | 0.654
K41R | 0.369 | 1.21
K41Q | 0.283 | 0.34
K41I | 0.234 | 0.587
K41T | 0.331 | 0.521
L31S | 0.0828 | 0.234
L31F | 0.0178 | 0.0593
L31C | -0.329 | -0.185
L31V | 0.222 | 0.319
L31R | 0.982 | 0.742

Variant | log2 fold change of mutant abundance [1] | NOISeq theta enrichment statistic [2]
L31W | -0.00348 | -0.00568
L31Y | 0.112 | 0.0569
L31I | -0.0584 | -0.05
L31T | -0.753 | -0.415
L31Q | -0.704 | -0.355
L31M | 0.0777 | 0.409
I45V | -0.176 | -0.559
I45S | -0.0723 | -0.0762
I45T | 0.0564 | 0.133
I45N | -0.084 | -0.118
I45L | -0.0164 | -0.0243
I45M | 0.232 | 0.292
I45Y | -0.375 | -0.177
I45C | -0.608 | -0.322
I45F | -0.122 | -0.279
G40V | -0.175 | -0.325
G40F | -0.217 | -0.18
G40A | -0.414 | -0.542
G40R | -0.679 | -0.606
G40C | -0.42 | -1.02
G40S | -0.565 | -1.01
G40D | -0.872 | -0.993
V34D | -0.176 | -0.209
V34S | -0.00293 | -0.00261

Variant | log2 fold change of mutant abundance [1] | NOISeq theta enrichment statistic [2]
V34L | 0.0533 | 0.0822
V34F | 0.136 | 0.261
V34G | 0.0248 | 0.0288
V34A | 0.0752 | 0.307
V34E | 0.441 | 0.295
V34I | 0.0486 | 0.109
K27P | 0.167 | 0.126
K27T | 0.042 | 0.0851
K27V | 0.0675 | 0.0512
K27N | 0.0611 | 0.156
K27Q | 0.221 | 0.33
K27L | 0.466 | 0.229
K27R | 0.0657 | 0.196
K27M | 0.0503 | 0.217
K27Y | 1.39 | 0.607
K27S | 0.158 | 0.0888
K27I | 0.123 | 0.074
K27W | 0.222 | 0.155
L30P | 0.034 | 0.0475
L30Y | -0.203 | -0.223
L30I | 0.143 | 0.278
L30Q | 0.179 | 0.251
L30V | 0.202 | 0.24
L30H | -0.215 | -0.161

A section of the results above:
Variant | log2 fold change of mutant abundance [1] | NOISeq theta enrichment statistic [2]
K27T | 0.042 | 0.0851
K27V | 0.0675 | 0.0512
K27N | 0.0611 | 0.156

The list continues.

Variant | log2 fold change of mutant abundance [1] | NOISeq theta enrichment statistic [2]
L30T | -0.131 | -0.0676
L30F | -0.00583 | -0.00479
L30R | -0.152 | -0.137
E33R | -0.0372 | -0.0389
E33Y | 0.127 | 0.126
E33A | -0.212 | -0.23
E33G | -0.169 | -0.346
E33Q | 0.217 | 0.185
E33T | 2.54 | 1.33
E33D | 0.0254 | 0.104
E33V | -0.134 | -0.299
E33K | -0.0267 | -0.0591
E33S | -0.212 | -0.144
L49H | -0.00696 | -0.00395
L49F | 0.459 | 0.43
L49T | 0.451 | 0.333
L49P | 0.218 | 0.395
L49M | 1.35 | 0.574
L49R | -0.403 | -0.445
L49S | -0.0751 | -0.0441
L49Q | 0.312 | 0.682
L49I | 0.101 | 0.389
L49V | 0.0626 | 0.0782
V48G | -0.0629 | -0.0734

Variant | log2 fold change of mutant abundance [1] | NOISeq theta enrichment statistic [2]
V48F | 0.0859 | 0.241
V48S | -0.0139 | -0.0147
V48I | 0.146 | 0.437
V48A | -0.0198 | -0.0323
V48L | 0.00204 | 0.00262
V48C | 0.0251 | 0.0166
V48D | 0.191 | 0.256
L46Q | 0.656 | 0.368
L46P | 0.148 | 0.233
L46Y | 0.0414 | 0.0261
L46V | 0.064 | 0.0772
L46C | -0.0815 | -0.0368
L46R | -0.0964 | -0.107
L46I | 0.0777 | 0.22
L46H | -0.122 | -0.351
L46S | 0.217 | 0.136
L46F | 0.0297 | 0.0932
F42I | 0.272 | 0.922
F42S | 0.308 | 1.38
F42L | 0.179 | 0.851
F42Y | 0.0701 | 0.462
F42V | 0.125 | 0.19
F42T | -0.0109 | -0.00867
F42N | -0.626 | -0.254

Another view of part of the listing above:
Variant,log2 fold change of mutant abundance [1],NOISeq theta enrichment statistic [2]
V48S,-0.0139,-0.0147
V48L,0.00204,0.00262
F42L,0.179,0.851
F42Y,0.0701,0.462
F42V,0.125,0.19
F42N,-0.626,-0.254

Next results follow.

Variant | log2 fold change of mutant abundance [1] | NOISeq theta enrichment statistic [2]
F42C | 0.0658 | 0.112
F42H | -0.623 | -0.29
C38R | 0.195 | 0.574
C38G | 0.0197 | 0.0356
C38S | 0.106 | 0.47
C38W | -0.309 | -0.554
C38F | -0.096 | -0.145
C38V | -0.0129 | -0.0145
C38L | -0.341 | -0.267
C38Y | -0.421 | -0.976
C38H | 2.51 | 0.834
S37L | 0.101 | 0.334
S37W | -0.0231 | -0.0308
S37P | -0.019 | -0.0354
S37F | -0.0624 | -0.0345
S37T | -0.245 | -0.939
S37M | -0.184 | -0.0783
S37A | 0.086 | 0.144
S37Q | -0.692 | -0.437
S37C | -0.128 | -0.111
S37R | -0.149 | -0.173
S37K | 0.336 | 0.217
S37V | -0.0673 | -0.0329
Y44R | -0.942 | -0.362

Variant | log2 fold change of mutant abundance [1] | NOISeq theta enrichment statistic [2]
Y44K | -0.879 | -0.412
Y44L | -0.148 | -0.122
Y44C | 0.214 | 0.428
Y44S | 0.236 | 0.266
Y44D | 0.0586 | 0.0709
Y44I | -0.0362 | -0.0371
Y44F | 0.284 | 0.982
Y44H | 0.424 | 0.939
Y44N | 0.174 | 0.346
Y44V | -0.243 | -0.112
E32Y | -0.456 | -0.262
E32A | 0.0488 | 0.0709
E32S | 0.195 | 0.115
E32G | -0.00789 | -0.0201
E32R | -0.395 | -0.207
E32V | -0.0395 | -0.117
E32D | -0.00119 | -0.00593
E32Q | -0.47 | -0.496
E32L | -0.954 | -0.605
E32K | -0.202 | -0.515
G43S | -0.337 | -0.231
G43C | -0.155 | -0.111
G43V | -0.0786 | -0.154
G43R | -0.117 | -0.212

Variant | log2 fold change of mutant abundance [1] | NOISeq theta enrichment statistic [2]
G43E | -0.548 | -0.704
G43W | 0.00397 | 0.00255
G43L | 0.124 | 0.0863
G43A | -0.444 | -0.352
G43D | -0.163 | -0.184
K29N | 0.0467 | 0.118
K29Y | -0.0818 | -0.0615
K29R | -0.19 | -0.657
K29P | 0.134 | 0.106
K29S | -0.0673 | -0.0365
K29I | -0.186 | -0.544
K29G | 1.56 | 0.719
K29E | 0.113 | 0.259
K29Q | 0.36 | 0.504
K29T | 0.0568 | 0.0794
K29L | -0.186 | -0.119
K29M | 0.547 | 0.279
E35V | 0.0618 | 0.286
E35Q | 0.11 | 0.116
E35D | -0.0457 | -0.13
E35G | -0.096 | -0.186
E35Y | -0.324 | -0.222
E35L | -0.461 | -0.223
E35K | -0.0809 | -0.152

A few values from above.
log2 fold change of mutant abundance [1], G43A reads -0.444
NOISeq theta enrichment statistic [2], G43L reads 0.0863

Remaining list, next part.

Variant | log2 fold change of mutant abundance [1] | NOISeq theta enrichment statistic [2]
E35A | 0.223 | 0.284
E35I | -0.566 | -0.276
E35S | -0.306 | -0.209
E35R | -0.924 | -0.829
T39R | 0.179 | 0.355
T39V | 0.745 | 0.36
T39K | 0.307 | 0.704
T39A | 0.0247 | 0.0994
T39P | -0.1 | -0.138
T39I | 0.545 | 0.426
T39Y | 0.33 | 0.164
T39M | 0.206 | 0.585
T39S | 0.0374 | 0.17
T39E | 1.19 | 0.502
T39L | -0.345 | -0.279
